These results are taken from article PMC12422955.

Chains of the proteins cited; added tags and fusions are not shown. Residues count along the entry.
UniProt P19490, residues 19-907: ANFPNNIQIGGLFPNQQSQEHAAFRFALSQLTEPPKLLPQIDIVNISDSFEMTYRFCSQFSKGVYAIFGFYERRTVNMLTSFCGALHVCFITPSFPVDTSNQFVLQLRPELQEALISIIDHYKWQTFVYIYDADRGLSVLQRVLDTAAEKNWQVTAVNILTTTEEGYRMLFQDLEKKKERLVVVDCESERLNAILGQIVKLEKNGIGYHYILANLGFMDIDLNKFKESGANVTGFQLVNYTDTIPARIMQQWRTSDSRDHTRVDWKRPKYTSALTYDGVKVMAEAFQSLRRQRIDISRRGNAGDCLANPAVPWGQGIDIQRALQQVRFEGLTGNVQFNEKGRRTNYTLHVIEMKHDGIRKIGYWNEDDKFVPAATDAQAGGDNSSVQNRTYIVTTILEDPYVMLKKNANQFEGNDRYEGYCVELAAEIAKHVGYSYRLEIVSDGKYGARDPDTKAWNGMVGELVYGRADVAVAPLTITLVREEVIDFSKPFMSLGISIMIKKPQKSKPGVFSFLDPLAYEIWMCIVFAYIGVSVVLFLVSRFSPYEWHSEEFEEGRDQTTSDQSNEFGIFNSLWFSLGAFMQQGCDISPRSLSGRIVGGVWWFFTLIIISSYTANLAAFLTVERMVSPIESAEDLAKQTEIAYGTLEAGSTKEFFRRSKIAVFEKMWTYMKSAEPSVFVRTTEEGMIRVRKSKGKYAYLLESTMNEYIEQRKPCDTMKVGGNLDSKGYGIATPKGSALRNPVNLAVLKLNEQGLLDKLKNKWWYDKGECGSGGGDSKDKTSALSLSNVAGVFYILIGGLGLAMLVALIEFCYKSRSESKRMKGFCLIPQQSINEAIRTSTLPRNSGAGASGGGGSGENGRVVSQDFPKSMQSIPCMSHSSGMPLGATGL
UniProt Q71RJ2: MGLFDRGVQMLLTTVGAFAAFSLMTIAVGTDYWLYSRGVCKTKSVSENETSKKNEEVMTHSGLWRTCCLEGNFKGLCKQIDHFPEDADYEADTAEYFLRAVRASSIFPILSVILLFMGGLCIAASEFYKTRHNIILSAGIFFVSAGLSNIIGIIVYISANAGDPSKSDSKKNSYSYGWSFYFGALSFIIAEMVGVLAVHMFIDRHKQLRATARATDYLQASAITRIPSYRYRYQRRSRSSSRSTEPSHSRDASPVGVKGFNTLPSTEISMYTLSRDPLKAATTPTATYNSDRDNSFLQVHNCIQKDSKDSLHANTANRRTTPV

These are yes or no findings as the source states them, for the method shown. Binding seen in cells or lysates may run through a third protein. Here binding means that the protein was enriched with, or labelled near, the bait; the list need not be complete.

For this assay, the target named is GluA1 subunit of native AMPA receptors from rat cerebellum (rat (endogenous in cerebellum)) (UniProt P19490). The assay is described as follows: affinity purification with mass spectrometry; rat cerebellum in 2% digitonin with (R,R)-2b and MPQX; GluA1 captured by 11B8 scFv–GFP–3C–Twin-Strep on Strep-Tactin XT (GluA2-containing receptors kept on the resin by 15F1 Fab), 3C release, FSEC; western blot and mass spectrometry. On the technique in general: A western blot detects proteins with antibodies after separation by electrophoresis.

On to TARP γ2 (from UniProt Q71RJ2 1-323), for which the binding result is on record as “binds”.
